Experimental data: publication PMC12712664
Results are given in words; binding and its absence hold for the method and conditions named. Binding seen in cells or lysates may run through a third protein. Some binding calls cover weakened binding; strength is not graded here.

Sequences of proteins named here, by UniProt entry; tags and fusion partners are left off.
UniProt P46937: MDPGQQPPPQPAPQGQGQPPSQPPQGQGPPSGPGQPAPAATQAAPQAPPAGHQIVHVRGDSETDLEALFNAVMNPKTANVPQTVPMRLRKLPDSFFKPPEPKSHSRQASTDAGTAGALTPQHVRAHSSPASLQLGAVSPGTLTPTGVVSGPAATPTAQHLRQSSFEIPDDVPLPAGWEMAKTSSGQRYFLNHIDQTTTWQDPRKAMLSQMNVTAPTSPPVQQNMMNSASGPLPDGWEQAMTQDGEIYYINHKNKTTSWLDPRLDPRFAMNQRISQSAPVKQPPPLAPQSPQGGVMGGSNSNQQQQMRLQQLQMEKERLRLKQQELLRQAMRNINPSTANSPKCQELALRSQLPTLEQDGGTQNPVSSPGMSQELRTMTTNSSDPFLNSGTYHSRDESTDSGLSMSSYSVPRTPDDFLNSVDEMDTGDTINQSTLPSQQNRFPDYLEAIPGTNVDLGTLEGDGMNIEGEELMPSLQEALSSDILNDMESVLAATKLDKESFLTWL
UniProt P49407: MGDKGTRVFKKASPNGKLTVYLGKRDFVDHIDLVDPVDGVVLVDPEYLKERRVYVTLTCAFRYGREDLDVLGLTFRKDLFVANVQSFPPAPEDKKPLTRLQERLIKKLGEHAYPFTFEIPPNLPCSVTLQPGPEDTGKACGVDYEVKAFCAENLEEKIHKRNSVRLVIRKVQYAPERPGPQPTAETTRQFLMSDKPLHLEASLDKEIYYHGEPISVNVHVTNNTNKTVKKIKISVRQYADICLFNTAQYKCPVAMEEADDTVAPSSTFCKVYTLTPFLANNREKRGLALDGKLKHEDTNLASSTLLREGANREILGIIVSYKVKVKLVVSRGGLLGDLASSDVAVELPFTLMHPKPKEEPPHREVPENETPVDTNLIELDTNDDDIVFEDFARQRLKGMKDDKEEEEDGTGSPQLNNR

Target: Yes-associated protein (human (endogenous in HCT8)) (UniProt P46937)
Experiment: co-IP; endogenous YAP immunoprecipitated with anti-YAP antibody (normal IgG as control), protein A/G-agarose beads, RIPA lysate, overnight at 4°C; β-arr1 detected by Western blot; cells untreated or treated with oxaliplatin (legend: HCT8, 1 μM, 24 h; methods: 293T, 10 μM, 24 h)

binding: binds
Substance: β-arrestin1 (from UniProt P49407 1-418)
